From patent US20220211692A1, “Modulators of the Cystic Fibrosis Transmembrane Conductance Regulator Protein and Methods of Use” (AbbVie Global Enterprises Ltd., priority 2021, published 2022)

Amino acid sequences for entries named in this document (tags omitted). Chains listed by the source or under a name are the forms on record and can include a tag or linker.
UniProt P13569, with tags, fused parts or gaps DEL508-508: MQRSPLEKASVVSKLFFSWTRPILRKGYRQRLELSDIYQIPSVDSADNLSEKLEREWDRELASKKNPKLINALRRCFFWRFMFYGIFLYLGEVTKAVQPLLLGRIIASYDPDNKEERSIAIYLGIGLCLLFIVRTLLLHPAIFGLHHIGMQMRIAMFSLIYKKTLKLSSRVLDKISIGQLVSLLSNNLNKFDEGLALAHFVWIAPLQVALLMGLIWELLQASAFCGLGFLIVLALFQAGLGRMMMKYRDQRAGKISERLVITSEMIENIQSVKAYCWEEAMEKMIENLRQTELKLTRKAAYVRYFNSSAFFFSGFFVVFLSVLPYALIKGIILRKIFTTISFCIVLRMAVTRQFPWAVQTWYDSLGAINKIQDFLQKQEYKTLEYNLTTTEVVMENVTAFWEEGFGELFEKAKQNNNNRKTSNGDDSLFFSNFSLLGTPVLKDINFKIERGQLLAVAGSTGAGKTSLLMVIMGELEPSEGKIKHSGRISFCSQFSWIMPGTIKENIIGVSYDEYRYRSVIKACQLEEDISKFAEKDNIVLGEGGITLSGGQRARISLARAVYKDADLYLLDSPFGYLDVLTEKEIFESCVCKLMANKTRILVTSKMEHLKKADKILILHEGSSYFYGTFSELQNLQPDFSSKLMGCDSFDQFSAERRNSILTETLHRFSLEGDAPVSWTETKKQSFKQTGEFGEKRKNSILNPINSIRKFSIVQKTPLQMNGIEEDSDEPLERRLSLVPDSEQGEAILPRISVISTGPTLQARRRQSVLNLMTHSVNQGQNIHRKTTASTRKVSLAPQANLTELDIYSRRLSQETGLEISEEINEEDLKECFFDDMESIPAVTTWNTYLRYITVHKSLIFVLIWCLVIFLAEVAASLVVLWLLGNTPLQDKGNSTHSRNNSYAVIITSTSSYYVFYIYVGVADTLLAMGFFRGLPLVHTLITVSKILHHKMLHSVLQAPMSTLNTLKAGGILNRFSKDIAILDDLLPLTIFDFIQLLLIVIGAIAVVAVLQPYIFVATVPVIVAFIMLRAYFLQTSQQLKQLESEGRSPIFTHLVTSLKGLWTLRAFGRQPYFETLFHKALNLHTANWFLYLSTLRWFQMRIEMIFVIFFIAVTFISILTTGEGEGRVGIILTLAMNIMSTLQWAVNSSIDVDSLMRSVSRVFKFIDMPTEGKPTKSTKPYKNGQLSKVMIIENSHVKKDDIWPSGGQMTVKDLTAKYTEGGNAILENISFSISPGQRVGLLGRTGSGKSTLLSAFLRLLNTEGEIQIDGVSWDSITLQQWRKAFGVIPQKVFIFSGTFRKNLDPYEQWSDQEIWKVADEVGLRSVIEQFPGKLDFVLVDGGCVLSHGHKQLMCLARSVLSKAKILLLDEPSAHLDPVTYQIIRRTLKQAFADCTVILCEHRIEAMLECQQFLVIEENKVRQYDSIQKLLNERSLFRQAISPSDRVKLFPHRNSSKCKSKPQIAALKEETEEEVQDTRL

How the values were obtained:
[1] = molecular target: F508del/F508del CFTR (Homo sapiens, UniProt P13569, DEL508-508); assay: Trans-Epithelial Current Clamp (TECC) assay using primary human bronchial epithelial cells; conditions: for Emax (% Dual): maximum percent activity relative to positive control (co-corrector 0.15 μM + potentiator 0.45 μM = 100%); for EC50: primary hBE cells F508del/F508del, test corrector with co-corrector and potentiator, 18-24 hours, equivalent CFTR current
From the text: A cell-based assay was developed using the primary human bronchial epithelial cells (hBE cells) with F508del/F508del CFTR and other mutations.
Primary human bronchial epithelial (hBE) cells from CFTR patients with homozygous F508del/F508del mutation were expanded from 1×10^6 to 250×10^6 cells (Neuberger, T et al., 2011, Methods Mol Biol 741:39-54). For this purpose, cells isolated from CF patients with the homozygous mutation, procured from the CF center tissue procurement and cell culture core at the Marsico Lung Institute at UNC (Randell), the Cystic Fibrosis translational research center at McGill University (University), and Rosalind Franklin University Medical School (RFUMS) were seeded onto 24 well Corning (Cat #3378) filter plates that were coated with 3T3 conditioned media and grown at an air-liquid interface for 35 days using an Ultroser® G supplemented differentiation media. All the primary human bronchial epithelial cells were collected in accordance with institutional review board approval protocols. Apical surface mucus was removed 72 hours before the experiment by incubating the apical surface of the cells for 30 minutes with 3 mM dithiothreitol (DTT) prepared in Dulbecco's phosphate buffered saline (DPBS) with Ca^2+ and Mg^2+. This was followed with aspiration of the mucus from the apical surface along with DPBS. The apical surface was re-washed with phosphate buffered saline (PBS) incubated for 30 minutes followed with aspiration. […] This chronic treatment with the potentiator helped eliminate any interaction that might happen with CFTR modulators (correctors and potentiators) and thereby determined the true efficacy of the modulator combinations reflective of clinical relevance.
The assay uses a Transepithelial Current Clamp (TECC) (Vu, C B et al., 2017; J Med Chem 60:458-473) instrument that can measure the functionality of the mutated channel by measuring the equivalent CFTR current (IEQ) generated by the polarized primary epithelial cells. […] Each measured VT values were corrected for the electrode offset potential measured using buffer alone in a separate plate, and each measured RT values were then corrected for the combined solution series and empty filter resistances. […] The area under the curve (AUC) for the time period between the forskolin peak IEQ response and at the time of bumetanide addition was also calculated using a one-third trapezoid method, in addition to calculating the IEQ. The assay was run in a 24-well format and all 24-wells were measured at the same time point giving a higher throughput for this assay. […]

[2] = molecular target: F508delCFTR (Homo sapiens, UniProt P13569, DEL508-508); assay: Cell Surface Expression-Horse Radish Peroxidase (CSE-HRP) assay in CFBE41o-F508delCFTR-HRP cells
Protocol: A cellular assay for measuring the F508delCFTR cell surface expression after correction with test compounds either without or with a co-corrector (2 μM of 3-[(2R,4R)-4-({[1-(2,2-difluoro-1,3-benzodioxol-5-yl)cyclopropyl]carbonyl}amino)-7-methoxy-3,4-dihydro-2H-chromen-2-yl]benzoic acid), was developed in human lung derived epithelial cell line (CFBE41o-) (Veit G et al, (2012) Mol Biol Cell. 23(21): 4188-4202). The development was achieved by expressing the F508delCFTR mutation along with a horseradish peroxidase (HRP) in the fourth exofacial loop, and then measuring the HRP activity using luminescence readout from these cells, CFBE41o-F508delCFTR-HIRP, that were incubated overnight with the test corrector compounds, either without or with the co-corrector. […] Post incubation, the plates were washed 5× times with Dulbecco's phosphate buffered saline (DPBS), followed by the addition of the HRP substrate, luminol (50 μL), and measuring the HRP activity using luminescence readout on EnVision® Multilabel Plate Reader (Perkin Elmer; product number 2104-0010). The raw counts from the experiment were analyzed using Accelrys® Assay Explorer v3.3. […]

Emax (% Dual) [1] | EC50 [1] | Maximum % activity (without co-corrector) ([2]; normalized to on-plate positive control) | EC50 ([2]; read-out: EC50 (without co-corrector), CFBE41o-F508delCFTR-HRP cells, 18-24 hours at 33° C.) | SMILES
167 % Dual | 0.503 µM | – | – | COc1ccc(C)cc1[C@]1(C(=O)NS(=O)(=O)c2cccc3nc(C)ccc23)CC(C)(C)CO1
154 % Dual | 0.0504 µM | 320% | 7.18 µM | COc1ccc(C)cc1C1(C(=O)NS(=O)(=O)c2cccc3nc(C)ccc23)CC2(COC2)CO1 (stereo not drawn)

The match of structure and compound is tentative.
